Measurements taken from patent US20240084267A1 (priority 2021, published 2024).
For at least one compound, name, drawing or mass did not settle the structure.

System: WT PR8 and PR8-NA-intNL virus
Type: cell-based, influenza A virus

## O=C1c2c(O)c(=O)ccn2N([C@@H]2c3ccccc3SCc3c2ccc(F)c3F)[C@@H]2COCCN12 [Baloxavir]
  inhibition of virus levels, hemagglutination assay readout: both viruses were inhibited at similar drug levels
